Values from PubChem BioAssay AID504786 (Drosophila RNAi Screening Center, 2011)

Purpose: 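Knock-downs reducing HIF reporter induction by the iron chelator DFO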 (primary screen)
Cells: Drosophila S2 cells with a stable HIF luciferase reporter
Reagents: long dsRNA against Drosophila genes, about 0.2 µg dsRNA per well of a 384-well plate
Time to read-out: three days of knock-down, then 20 h of DFO before reading
Challenge: desferrioxamine (DFO) at 100 µM, an iron chelator that mimics hypoxia, for 20 h
Measurement: 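HIF reporter luminescence in cells given 100 µM DFO for 20 h, using the mouse ldh-a hypoxia-response element, scored as per-plate z-scores; higher means greater loss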
Reading the numbers: z-score: higher = stronger loss of HIF reporter signal
In all, the deposit lists about 21,000 reagents; shown is a random part of those that have a named target and a result. 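Primary screen; positive scores mean lost reporter signal, so the sign may be inverted from the usual convention.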 Names joined by + are all predicted targets of the reagent.

target | DRSC id | z-score, replicate 1 | z-score, replicate 2
CG13048 | DRSC09929 | -0.2 | 0.2
CG33919 | DRSC04940 | -0.2 | -0.3
CG14088 | DRSC10092 | -0.2 | 0.3
Top1 (Topoisomerase 1) | DRSC20295 | -0.3 | 0.7
CG18081 | DRSC10294 | -0.1 | -0.2
CG13747 | DRSC06418 | -0.3 | -0.3
Mco4 (Multicopper oxidase 4) | DRSC20061 | -0.3 | -0.2
CG14684 | DRSC14907 | -0.4 | -0.7
CG31229 | DRSC13309 | 2.2 | 2.9
Zmynd8 (Zinc finger MYND-type containing 8) | DRSC15310 | 0 | -0.6
azot (ahuizotl) | DRSC06051 | -0.3 | -0.4
CG9147 | DRSC03147 | -0.2 | -0.3
p120ctn (p120 catenin) | DRSC07753 | -0.3 | -0.2
CG33502 + CG32857 + CG32500 | DRSC20817 | -0.2 | -0.1
CG33502 + CG32857 + CG32500 | DRSC21038 | -0.2 | 1
CG14125 | DRSC10129 | -0.2 | 0
BoYb | DRSC11637 | -0.3 | -0.3
Cyt-b5-r (Cytochrome b5-related) | DRSC03308 | 0 | -0.1
CG42531 | DRSC05318 | -0.3 | 0.2
ec (echinus) | DRSC17285 | 0.3 | -0.1
ec (echinus) | DRSC17286 | -0.1 | -0.1
ec (echinus) | DRSC18658 | -0.4 | 0
Dtwd2 (DTW domain containing 2) | DRSC12501 | -0.1 | -0.4
CG4022 | DRSC10395 | 0 | -0.1
CG7102 | DRSC02647 | -0.3 | -0.6
CG7102 | DRSC03007 | -0.3 | -0.3
Pcf11 (Pcf11 cleavage and polyadenylation factor subunit) | DRSC05983 | 1 | 0.1

An excerpt from above, showing only “z-score, replicate 1”.
Mco4 (Multicopper oxidase 4) [DRSC20061]: -0.3
CG14684 [DRSC14907]: -0.4
CG31229 [DRSC13309]: 2.2
Zmynd8 (Zinc finger MYND-type containing 8) [DRSC15310]: 0
azot (ahuizotl) [DRSC06051]: -0.3
CG9147 [DRSC03147]: -0.2
p120ctn (p120 catenin) [DRSC07753]: -0.3

The list goes on.
target | DRSC id | z-score, replicate 1 | z-score, replicate 2
CG13760 | DRSC18617 | -0.2 | 0.2
CG2126 | DRSC15418 | -0.3 | 0
CG34174 | DRSC00101 | 1.2 | -0.5
CG11403 | DRSC18532 | 0 | -0.2
Cyp6a2 (Cytochrome P450 6a2) | DRSC05014 | -0.2 | 0.4
CG10286 | DRSC12520 | -0.2 | 0.1
CG7382 | DRSC03052 | -0.2 | -0.2
Cpr49Ab (Cuticular protein 49Ab) | DRSC05341 | -0.3 | -0.3
cer (crammer) | DRSC05992 | -0.3 | -0.5
CG31661 | DRSC00296 | -0.4 | -0.2
CG12391 | DRSC06147 | 0 | -0.1
jb (jean-baptiste) | DRSC20531 | -0.5 | -0.1
Vha16-1 (Vacuolar H[+] ATPase 16kD subunit 1) | DRSC05020 | -0.3 | -1.1
Cmpk (Cytidine/uridine monophosphate kinase 1) | DRSC16643 | -0.3 | -0.1
TBC1D5 (TBC1 domain family member 5) | DRSC16421 | -0.4 | -0.7
MSBP (membrane steroid binding protein) | DRSC20146 | -0.3 | -0.3
CG11000 | DRSC12158 | -0.3 | 0.3
Ppcs (Phosphopantothenoylcysteine synthetase) | DRSC14127 | -0.2 | -0.2
Zasp66 (Z band alternatively spliced PDZ-motif protein 66) | DRSC08932 | -0.4 | 0.6
Zasp66 (Z band alternatively spliced PDZ-motif protein 66) | DRSC10631 | -0.2 | -0.3
Zasp66 (Z band alternatively spliced PDZ-motif protein 66) | DRSC10632 | -0.3 | -0.3
CG14330 | DRSC14809 | -0.5 | -0.9
CG9737 | DRSC16550 | -0.5 | -0.2
Pex6 + Hao | DRSC06097 | -0.3 | 0.5
Pex6 + Hao | DRSC06704 | 0.2 | 0.7
CG3652 | DRSC00624 | -0.2 | -0.1
CrzR (Corazonin receptor) | DRSC09781 | -0.3 | -0.1
CrzR (Corazonin receptor) | DRSC09782 | -0.3 | -0.1
Rab3-GEF (Rab3 GDP-GTP exchange factor) | DRSC19954 | -0.4 | 0.2
Rab3-GEF (Rab3 GDP-GTP exchange factor) | DRSC19955 | -0.1 | 0.5
Rab3-GEF (Rab3 GDP-GTP exchange factor) | DRSC19956 | 3.5 | 1.3
